# Data published in paper PMC12729082.
# By UniProt entry, the sequences of proteins in these tests, tags left out.
# UniProt Q9Y297: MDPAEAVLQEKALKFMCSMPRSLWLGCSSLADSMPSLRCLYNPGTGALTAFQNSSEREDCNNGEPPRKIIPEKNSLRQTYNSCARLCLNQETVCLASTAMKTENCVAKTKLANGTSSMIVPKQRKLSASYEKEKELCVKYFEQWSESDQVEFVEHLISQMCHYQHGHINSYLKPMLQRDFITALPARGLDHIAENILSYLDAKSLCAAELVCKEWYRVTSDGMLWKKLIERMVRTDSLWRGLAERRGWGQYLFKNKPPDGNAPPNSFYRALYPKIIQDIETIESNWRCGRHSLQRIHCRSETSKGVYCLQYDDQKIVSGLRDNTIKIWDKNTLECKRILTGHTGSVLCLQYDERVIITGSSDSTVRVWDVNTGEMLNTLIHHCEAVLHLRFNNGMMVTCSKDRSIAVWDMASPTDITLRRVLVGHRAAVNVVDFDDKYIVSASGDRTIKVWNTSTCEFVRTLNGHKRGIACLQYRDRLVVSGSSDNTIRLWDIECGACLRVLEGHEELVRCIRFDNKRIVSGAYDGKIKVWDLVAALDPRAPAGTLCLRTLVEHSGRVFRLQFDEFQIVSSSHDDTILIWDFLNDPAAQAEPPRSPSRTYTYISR
# These are yes or no findings as the source states them, for the method shown. In cells and extracts the contact can be indirect. Some results given as binding are weak or reduced against the parent protein; the word gives no strength. For part of these data: Tags and fused reporters may be left off the sequences shown.
# T1: Histone deacetylase HDAC7 (human (endogenous in T24 and UMUC3 bladder cancer cells)) (UniProt Q8WUI4)
# T1 sequence: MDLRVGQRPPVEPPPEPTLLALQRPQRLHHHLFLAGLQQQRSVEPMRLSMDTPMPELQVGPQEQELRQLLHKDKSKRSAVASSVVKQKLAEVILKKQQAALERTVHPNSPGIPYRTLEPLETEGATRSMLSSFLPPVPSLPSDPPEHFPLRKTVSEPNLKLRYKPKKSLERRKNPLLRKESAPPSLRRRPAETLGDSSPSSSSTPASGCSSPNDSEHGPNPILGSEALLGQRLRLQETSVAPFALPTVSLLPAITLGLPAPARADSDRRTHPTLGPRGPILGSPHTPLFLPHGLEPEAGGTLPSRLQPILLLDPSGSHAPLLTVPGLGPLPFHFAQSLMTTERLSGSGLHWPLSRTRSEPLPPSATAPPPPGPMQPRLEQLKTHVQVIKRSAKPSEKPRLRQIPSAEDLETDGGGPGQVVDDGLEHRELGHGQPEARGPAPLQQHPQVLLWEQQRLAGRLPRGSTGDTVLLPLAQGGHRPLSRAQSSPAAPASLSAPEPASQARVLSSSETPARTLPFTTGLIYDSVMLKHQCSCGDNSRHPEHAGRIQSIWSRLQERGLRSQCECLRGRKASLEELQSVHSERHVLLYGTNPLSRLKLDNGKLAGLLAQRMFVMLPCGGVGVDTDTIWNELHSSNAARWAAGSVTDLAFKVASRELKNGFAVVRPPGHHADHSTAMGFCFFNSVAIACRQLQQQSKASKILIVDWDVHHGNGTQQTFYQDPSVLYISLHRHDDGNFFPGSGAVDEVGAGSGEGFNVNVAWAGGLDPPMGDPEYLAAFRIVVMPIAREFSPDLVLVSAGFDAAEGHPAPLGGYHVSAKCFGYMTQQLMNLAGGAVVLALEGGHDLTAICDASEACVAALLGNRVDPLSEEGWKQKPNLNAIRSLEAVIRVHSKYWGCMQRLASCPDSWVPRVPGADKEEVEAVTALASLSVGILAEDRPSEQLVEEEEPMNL
# What was measured:
# [1] = biological target: Beta-Transducin Repeat Containing E3 Ubiquitin Protein Ligase (BTRC) (human (endogenous in T24 and UMUC3 bladder cancer cells)) (UniProt Q9Y297); assay: co-IP; endogenous proteins from BCa cell lysate (20 mM Tris pH 7.5, 150 mM NaCl, 1% Triton X-100), primary antibody with protein A/G agarose beads overnight at 4 °C, six washes, Western blot; for BTRC-SRSF7 also after HDAC7 knockdown (T24) or HDAC7 overexpression (UMUC3)
# [2] = biological target: T1, Histone deacetylase HDAC7 (human (endogenous in T24 and UMUC3 bladder cancer cells)); assay: as above
# [3] = biological target: Beta-Transducin Repeat Containing E3 Ubiquitin Protein Ligase (BTRC) (human (endogenous in T24 and UMUC3 bladder cancer cells)) (UniProt Q9Y297); assay: co-IP; T24 cells transfected with SRSF7 wild-type or Lys24 mutant (Lys→Ala) plasmids; lysate, primary antibody with protein A/G agarose beads, Western blot
# [4] = biological target: T1, Histone deacetylase HDAC7 (human (endogenous in T24 and UMUC3 bladder cancer cells)); assay: as above
binding [1],binding [2],binding [3],binding [4],Binder
binds,binds,–,–,"Serine and arginine rich splicing factor 7 (SRSF7) (protein, UniProt Q16629 1-238) MSRYGRYGGETKVYVGNLGTGAGKGELERAFSYYGPLRTVWIARNPPGFAFVEFEDPRDAEDAVRGLDGKVICGSRVRVELSTGMPRRSRFDRPPARRPFDPNDRCYECGEKGHYAYDCHRYSRRRRSRSRSRSHSRSRGRRYSRSRSRSRGRRSRSASPRRSRSISLRRSRSASLRRSRSGSIKGSRYFQSPSRSRSRSRSISRPRSSRSKSRSPSPKRSRSPSGSPRRSASPERMD"
–,–,binds,binds,"SRSF7 Lys24 mutant (Lys→Ala) (plasmid, transfected) (protein, UniProt Q16629 1-238) MSRYGRYGGETKVYVGNLGTGAGAGELERAFSYYGPLRTVWIARNPPGFAFVEFEDPRDAEDAVRGLDGKVICGSRVRVELSTGMPRRSRFDRPPARRPFDPNDRCYECGEKGHYAYDCHRYSRRRRSRSRSRSHSRSRGRRYSRSRSRSRGRRSRSASPRRSRSISLRRSRSASLRRSRSGSIKGSRYFQSPSRSRSRSRSISRPRSSRSKSRSPSPKRSRSPSGSPRRSASPERMD"
–,–,binds,binds,"SRSF7 wild-type (plasmid, transfected) (protein, UniProt Q16629 1-238) MSRYGRYGGETKVYVGNLGTGAGKGELERAFSYYGPLRTVWIARNPPGFAFVEFEDPRDAEDAVRGLDGKVICGSRVRVELSTGMPRRSRFDRPPARRPFDPNDRCYECGEKGHYAYDCHRYSRRRRSRSRSRSHSRSRGRRYSRSRSRSRGRRSRSASPRRSRSISLRRSRSASLRRSRSGSIKGSRYFQSPSRSRSRSRSISRPRSSRSKSRSPSPKRSRSPSGSPRRSASPERMD"
